In patent US20240228481A1, “NOVEL SULFONAMIDE SERIES OF QR2 INHIBITORS TO TACKLE OXIDATIVE STRESS AND COGNITIVE DECLINE” (CARMEL HAIFA UNIVERSITY ECONOMIC CORPORATION LTD., priority 2021, published 2024):
Entries after “also recorded” stand apart in the source; their conditions may differ. Where a name gives a salt, the structure may show the parent alone. At least one structure is not confirmed: it was looked up by name or label, or the drawing left a doubt.

How the values were obtained:
5×FAD mice [1] = test: Nesting in 5×FAD mice; type: in vivo, mouse; conditions: regardless of sex, hydrochloride
5×FAD mice [2] = test: Morris water maze in 5×FAD mice
QR2 = molecular target: T1, QR2 (Homo sapiens, UniProt P16083); test: Cellular thermal shift assay (CETSA) of QR2 in HEK293T cells; type: cell-based; set-up: endogenous in cells; host or cells: HEK293T; conditions: 5 μM, 1 h preincubation
T1 sequence (P16083 1-231): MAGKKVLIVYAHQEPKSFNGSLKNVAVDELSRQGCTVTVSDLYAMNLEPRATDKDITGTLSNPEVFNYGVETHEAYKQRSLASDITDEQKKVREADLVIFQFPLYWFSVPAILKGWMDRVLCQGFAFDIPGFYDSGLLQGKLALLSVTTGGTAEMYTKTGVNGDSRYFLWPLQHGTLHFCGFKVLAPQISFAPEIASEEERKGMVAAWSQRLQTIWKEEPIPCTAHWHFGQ
Protocol: The CETSA assay was performed as described (Miettinen and Björklund, 2014) with some modifications. Briefly, HEK293T cells were trypsinized (Biological Industries), washed in PBS (Sigma-Aldrich), and then suspended in PBS containing protease inhibitor cocktail (Roche). The suspended cells were then divided into two Eppendorf tubes and were treated with either: a compound or DMSO (Sigma-Aldrich) for 1 h at 37° C. under shaking. Following treatment, each sample was divided into PCR tubes (100 μL/tube) and subjected to a temperature gradient (ranging from 63 to 80° C.) for 3 minutes. Cell lysates were obtained by 3-cycles of freeze-thaw using liquid nitrogen and a thermal block set to 25° C. Samples were then centrifuged at 15,000 rpm at 4° C. for 20 min and were subsequently analyzed by western blot targeting QR2 (1:100, Santa Cruz; sc-271665). The isothermal dose response fingerprint (ITDRF) experiments were done using a constant temperature of 73° C. […]
To establish direct target engagement, as well as cell membrane permeability, a cellular thermal shift assay (CETSA) was carried out (see methods), using the leading compounds YB-537, YB-800, and YB-808. Following 1 h preincubation with 5 μM of each of the compounds, or vehicle, thermal aggregation curves (Tagg) of QR2 expressed in HEK293T were measured in increasing temperatures. […]

**Q.** What does the source list for Cc1ccc(-c2cn3cccc(C)c3n2)cc1S(=O)(=O)N1CCNCC1 [YB-537, 8-methyl-2-(4-methyl-3-(piperazin-1-ylsulfonyl)phenyl)imidazo[1,2-a]pyridine hydrochloride]?
**A.** nest quality over time under treatment (5×FAD mice [1]): improvement in nest quality over time; also recorded: significantly correlated to time under treatment; escape latency in Morris water maze compared to controls (5×FAD mice [2]; 5×FAD both sexes, drinking water, hydrochloride): tended to be faster; also recorded: trend toward shorter escape latency; spatial learning in Morris water maze compared to controls (5×FAD mice [2]; 5×FAD females): insignificantly faster increments of spatial learning; spatial learning in Morris water maze compared to controls (5×FAD mice [2]; 5×FAD males): insignificantly faster increments of spatial learning; thermal stability of QR2 (thermal aggregation curve) versus vehicle (QR2): shifts of thermal stability
